The list does not hold the whole screen: it gathers tests that were run many times, whatever their T/C, doses with no T/C, and many T/C values between a quarter and a half above the control. Further doses and runs are listed elsewhere. T/C gives the treated animals as a percentage of the vehicle group. Some doses have a count of surviving animals in place of a T/C: the source files T/C as zero there, which appears to mark a toxic dose or a test without result, not a measured value. Some survivor counts are full or nearly so, which does not show that the dose was tolerated: the source hardly ever lists a survival T/C far under the control, and the zero likely stands for such cases as well. Counts of survivors are from the toxicity check (mostly the fifth day) where no day follows; animals may have died later. Schedules are NCI's codes, read here as Q, the interval in days (D) or hours (H), X, the number of doses. Some entries hold several experiments; the values are given in rising order. For survival time, the PubChem record calls one and a half times the control and up active, and a quarter to a half above the control has no call in these data; cut-offs in other NCI protocols can differ. *1 amine or outer side, *2 acyl side, *3 side chain or, on linkers, in order; H or OH if unused. Where a SMILES comes first, the peptide text is derived from it. Bridges are numbered along the chain shown (N, C = ends). Roman numbers before positions name the chains, in order. [ ]: non-standard residue; d: D form. Actinocin(9to1) = Cc1c2oc3c(C)ccc(C(=O)[*:1])c3nc-2c(C(=O)[*:2])c(N)c1=O; NMeV = CN[CH](C(=O)O)C(C)C; Aze = O=C(O)[CH]1CCN1; Sar = CNCC(=O)O

The assay deals with CD2F1 mice, ip Colon 26 adenocarcinoma, median survival T/C. Nature of the assay: NCI In Vivo Anticancer Drug Screen. Data for tumor model Colon 26 Adenocarcinoma (intraperitoneal) in CD2F1 (CDF1) mice. Conditions: T/C endpoint: median survival time, higher T/C = longer survival. Here is the method: The antitumor activity of compounds was measured in mice bearing transplantable tumors. Survival or tumor size were measured and the results are expressed as the measurement made in the treated group (T) divided by the measurement made in the vehicle treated control group (C). The tumor model used in this assay is Colon 26 Adenocarcinoma (intraperitoneal) in CD2F1 (CDF1) mice

The mark [1] stands for this setting: dose: 400.0 mg/kg/injection, schedule: Q04DX003 (ip), vehicle: Klucel (hydroxypropylcellulose) (HPC).
Where [2] appears, read: dose: 100.0 mg/kg/injection, schedule: Q04DX003 (ip), vehicle: saline with Tween-80.
The mark [3] stands for this setting: dose: 100.0 mg/kg/injection, schedule: Q04DX003 (ip), vehicle: Klucel (hydroxypropylcellulose) (HPC).

With `N/C(=N\O)c1cn(C2OC(CO)C(O)C2O)c2ncnc(N)c12` (configuration not stated), the T/C (dose: 16.0 mg/kg/injection, schedule: Q04DX003 (ip), vehicle: Klucel (hydroxypropylcellulose) (HPC)) was 127 % of control. For the same compound, the survivor count reads like this: (dose: 32.0 mg/kg/injection, schedule: Q04DX003 (ip), vehicle: Klucel (hydroxypropylcellulose) (HPC)) 7 of 10 and 10 of 10; (dose: 64.0 mg/kg/injection, schedule: Q04DX003 (ip), vehicle: Klucel (hydroxypropylcellulose) (HPC)) 2 of 10; (dose: 128.0 mg/kg/injection, schedule: Q04DX003 (ip), vehicle: Klucel (hydroxypropylcellulose) (HPC)) 0 of 10.

For the compound `Clc1ccc(C2SC=Cc3ccccc32)cc1` (configuration not stated), the survivor count reads like this: under setting [1], 0 of 10; (dose: 1000.0 mg/kg/injection, schedule: Q04DX002 (ip), vehicle: Klucel (hydroxypropylcellulose) (HPC)) 0 of 10.

As to `O=P1(N(CCCl)CCCl)NCCCO1` (configuration not stated), the T/C was 130 % of control (dose: 51.0 mg/kg/injection, schedule: Q07DX003 (ip), vehicle: saline); 143 % of control (dose: 73.0 mg/kg/injection, schedule: Q07DX003 (ip), vehicle: saline, evaluated on day 60); 133 % of control (dose: 73.0 mg/kg/injection, schedule: Q07DX003 (ip), vehicle: saline, evaluated on day 70); 146 % of control (dose: 105.0 mg/kg/injection, schedule: Q07DX003 (ip), vehicle: saline); 126 % of control (dose: 150.0 mg/kg/injection, schedule: Q03DX002 (ip), vehicle: saline); 131 % of control (dose: 150.0 mg/kg/injection, schedule: Q07DX003 (ip), vehicle: saline).

As to `CC1(C)CC23C4COC(=O)C2CCC1C3CC4=O` (configuration not stated), the survivor count runs as follows: (dose: 250.0 mg/kg/injection, schedule: Q04DX002 (ip), vehicle: saline with Tween-80) 7 of 10; (dose: 288.0 mg/kg/injection, schedule: Q04DX003 (ip), vehicle: DMSO) 10 of 10; (dose: 400.0 mg/kg/injection, schedule: Q04DX003 (ip), vehicle: DMSO) 9 of 10.

With `Nc1ccc(Cl)cc1N`, under “dose: 400.0 mg/kg/injection, schedule: Q04DX003 (ip), vehicle: saline + Tween-80 + alcohol”, the survivor count was 10 of 10.

Regarding `Nc1nc(=S)c2ncn(C3CC(O)C(CO)O3)c2[nH]1` (configuration not stated), the T/C runs as follows: (dose: 5.0 mg/kg/injection, schedule: Q04DX003 (ip), vehicle: saline with Tween-80) 141 % of control; (dose: 20.0 mg/kg/injection, schedule: Q04DX003 (ip), vehicle: saline with Tween-80) 142 % of control; (dose: 32.0 mg/kg/injection, schedule: Q04DX002 (ip), vehicle: saline with Tween-80) 129 % of control; (dose: 64.0 mg/kg/injection, schedule: Q04DX002 (ip), vehicle: saline with Tween-80) 126 % of control; (dose: 80.0 mg/kg/injection, schedule: Q04DX003 (ip), vehicle: saline with Tween-80) 140 % of control; (dose: 128.0 mg/kg/injection, schedule: Q04DX002 (ip), vehicle: saline with Tween-80) 133 % of control. For the same compound, for the setting “dose: 160.0 mg/kg/injection, schedule: Q04DX003 (ip), vehicle: saline with Tween-80”, the survivor count is listed as 9 of 10.

In the case of `CCNCCNc1ccc(NCCNCC)c2c1C(=O)c1ccccc1C2=O`, the T/C runs as follows: (dose: 2.0 mg/kg/injection, schedule: Q01DX009 (ip), vehicle: acid diluted with saline) 126 % of control; (dose: 4.0 mg/kg/injection, schedule: Q01DX009 (ip), vehicle: acid diluted with saline) 145 % of control. Further, the survivor count (dose: 32.0 mg/kg/injection, schedule: Q01DX009 (ip), vehicle: acid diluted with saline) is 5 of 10 and 10 of 10.

Consider `CO[C@@]12[C@H](COC(N)=O)C3=C(C(=O)C(C)=C(N)C3=O)N1C[C@@H]1N[C@@H]12`, for which the survivor count by setting is: (dose: 0.5 mg/kg/injection, schedule: Q01DX004 (ip), vehicle: saline) 0 of 8 on day 14; (dose: 2.0 mg/kg/injection, schedule: Q01DX004 (ip), vehicle: saline) 4 of 8 on day 14.

Consider `O=NN(CCCl)C(=O)NC1CCC(=O)NC1=O` (configuration not stated), for which, under “dose: 22.0 mg/kg/injection, schedule: Q04DX003 (oral), vehicle: saline with Tween-80”, the T/C is 125 % of control. For the same compound, the survivor count is 9 of 10 (dose: 22.5 mg/kg/injection, schedule: Q04DX003 (ip), vehicle: saline with Tween-80) and 4 of 10 (dose: 45.0 mg/kg/injection, schedule: Q04DX003 (ip), vehicle: saline with Tween-80).

Turning to `Cc1c2oc3c(C)ccc(C(=O)NC4C(=O)NC(C(C)C)C(=O)N5CCC5C(=O)N(C)CC(=O)N(C)C(C(C)C)C(=O)OC4C)c3nc-2c(C(=O)NC2C(=O)NC(C(C)C)C(=O)N3CCC3C(=O)N(C)CC(=O)N(C)C(C(C)C)C(=O)OC2C)c(N)c1=O` (configuration not stated) (I: TV[Aze][Sar][NMeV] / II: TV[Aze][Sar][NMeV]; ester I:1-I:C, II:1-II:C; linker I:N-II:N via Actinocin(9to1); configuration not given here), the T/C reads like this: (dose: 450.0 micrograms/kg/injection, schedule: Q04DX003 (ip), vehicle: saline + alcohol) 141 % of control; (dose: 750.0 micrograms/kg/injection, schedule: Q04DX003 (ip), vehicle: saline + alcohol) 145 % of control. Also, the survivor count (dose: 1250.0 micrograms/kg/injection, schedule: Q04DX003 (ip), vehicle: saline + alcohol) is given as 8 of 8.

Regarding `[I][Hg][CH2]C1COC([CH2][Hg][I])CO1` (configuration not stated), the survivor count is, setting by setting: under setting [2], 4 of 10; (dose: 200.0 mg/kg/injection, schedule: Q04DX003 (ip), vehicle: saline with Tween-80) 0 of 10.

Take `CC(=O)OCc1cc(=O)n(C)c2c3c4c(cc12)c(C)cc(=O)n4CO3`: the T/C under setting [3] is 132 % of control.

Turning to `CC(CN1CC(=O)NC(=O)C1)N1CC(=O)NC(=O)C1` (configuration not stated), the T/C is, setting by setting: under setting [3], 135 % of control; (dose: 200.0 mg/kg/injection, schedule: Q04DX003 (ip), vehicle: Klucel (hydroxypropylcellulose) (HPC)) 143 % of control; under setting [1], 135 % of control.

Turning to `NCCNc1ccc(NCCN)c2c1C(=O)c1ccccc1C2=O`, the T/C (dose: 1.0 mg/kg/injection, schedule: Q01DX009 (ip), vehicle: acid diluted with saline) is 145 % of control. The survivor count (dose: 24.0 mg/kg/injection, schedule: Q01DX009 (ip), vehicle: acid diluted with saline) is recorded as 8 of 10.

With `Cc1c[nH]c(=O)[nH]c1=O`, the survivor count is, setting by setting: (dose: 512.0 mg/kg/injection, schedule: Q04DX002 (ip), vehicle: Klucel (hydroxypropylcellulose) (HPC)) 10 of 10; (dose: 1024.0 mg/kg/injection, schedule: Q04DX002 (ip), vehicle: Klucel (hydroxypropylcellulose) (HPC)) 10 of 10.

Turning to `C=CC(=O)N1CN(C(=O)C=C)CN(C(=O)C=C)C1`, the T/C is 131 % of control (dose: 3.12 mg/kg/injection, schedule: Q04DX003 (ip), vehicle: saline) and 132 % of control (dose: 6.25 mg/kg/injection, schedule: Q04DX003 (ip), vehicle: saline). Moreover, the survivor count by setting is: (dose: 25.0 mg/kg/injection, schedule: Q04DX003 (ip), vehicle: saline with Tween-80) 4 of 10; (dose: 25.0 mg/kg/injection, schedule: Q04DX003 (ip), vehicle: saline) 0 of 10; (dose: 50.0 mg/kg/injection, schedule: Q04DX003 (ip), vehicle: saline with Tween-80) 0 of 10; (dose: 50.0 mg/kg/injection, schedule: Q04DX003 (ip), vehicle: saline) 0 of 10; under setting [2], 0 of 10; (dose: 100.0 mg/kg/injection, schedule: Q04DX003 (ip), vehicle: saline) 0 of 10.

(Values after PubChem BioAssay AID210 (DTP/NCI, 2004).)
